One assay concerns the target T1, Aquarius K829A (human) (UniProt O60306).
T1 sequence: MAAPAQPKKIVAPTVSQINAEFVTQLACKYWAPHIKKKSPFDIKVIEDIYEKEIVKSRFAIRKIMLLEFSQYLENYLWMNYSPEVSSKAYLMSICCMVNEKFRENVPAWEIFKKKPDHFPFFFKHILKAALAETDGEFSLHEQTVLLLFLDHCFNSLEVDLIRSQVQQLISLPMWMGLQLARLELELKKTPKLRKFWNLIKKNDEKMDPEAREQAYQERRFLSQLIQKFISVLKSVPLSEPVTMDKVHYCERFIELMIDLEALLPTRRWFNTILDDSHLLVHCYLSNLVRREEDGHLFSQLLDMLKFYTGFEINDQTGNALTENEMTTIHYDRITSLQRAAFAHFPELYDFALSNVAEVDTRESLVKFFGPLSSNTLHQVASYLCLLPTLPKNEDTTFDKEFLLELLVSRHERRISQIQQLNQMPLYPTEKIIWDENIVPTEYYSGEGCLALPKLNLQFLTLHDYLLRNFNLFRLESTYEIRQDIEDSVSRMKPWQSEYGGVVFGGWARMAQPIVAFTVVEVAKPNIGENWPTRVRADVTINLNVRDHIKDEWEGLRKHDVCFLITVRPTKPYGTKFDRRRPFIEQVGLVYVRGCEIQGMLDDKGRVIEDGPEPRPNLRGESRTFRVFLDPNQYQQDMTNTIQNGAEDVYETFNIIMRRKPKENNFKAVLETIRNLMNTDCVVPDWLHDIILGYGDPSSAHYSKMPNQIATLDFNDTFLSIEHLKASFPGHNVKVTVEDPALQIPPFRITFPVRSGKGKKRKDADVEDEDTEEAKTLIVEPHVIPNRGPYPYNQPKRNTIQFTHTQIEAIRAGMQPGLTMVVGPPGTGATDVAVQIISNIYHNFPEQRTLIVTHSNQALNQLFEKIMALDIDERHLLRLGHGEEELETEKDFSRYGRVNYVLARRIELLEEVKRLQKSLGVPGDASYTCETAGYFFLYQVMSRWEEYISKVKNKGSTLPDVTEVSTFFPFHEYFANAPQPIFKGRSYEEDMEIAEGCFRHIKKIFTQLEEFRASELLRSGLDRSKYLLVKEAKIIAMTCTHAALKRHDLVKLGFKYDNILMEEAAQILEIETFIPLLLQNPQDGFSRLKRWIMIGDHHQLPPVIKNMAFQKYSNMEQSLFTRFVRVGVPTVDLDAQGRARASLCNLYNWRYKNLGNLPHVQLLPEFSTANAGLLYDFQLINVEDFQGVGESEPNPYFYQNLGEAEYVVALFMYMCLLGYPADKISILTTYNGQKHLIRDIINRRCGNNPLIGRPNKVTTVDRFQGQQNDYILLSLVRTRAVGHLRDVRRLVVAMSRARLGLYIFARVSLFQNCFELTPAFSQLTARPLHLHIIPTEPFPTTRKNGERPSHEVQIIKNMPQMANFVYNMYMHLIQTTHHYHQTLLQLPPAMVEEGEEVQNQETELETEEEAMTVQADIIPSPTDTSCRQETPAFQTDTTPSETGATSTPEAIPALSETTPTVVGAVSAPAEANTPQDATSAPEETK
The assay can be described thus: pull-down; C-terminally 8×His-tagged Aquarius (wild type or K829A) co-expressed with the untagged ΔISCC complex in High Five cells; HisTrap Ni(II) column (400 mM NaCl lysis buffer), imidazole gradient, then Q Sepharose; peak fractions of stoichiometric IBC.

By UniProt entry, the sequences of proteins in these tests, tags left out.
UniProt Q9UNP9: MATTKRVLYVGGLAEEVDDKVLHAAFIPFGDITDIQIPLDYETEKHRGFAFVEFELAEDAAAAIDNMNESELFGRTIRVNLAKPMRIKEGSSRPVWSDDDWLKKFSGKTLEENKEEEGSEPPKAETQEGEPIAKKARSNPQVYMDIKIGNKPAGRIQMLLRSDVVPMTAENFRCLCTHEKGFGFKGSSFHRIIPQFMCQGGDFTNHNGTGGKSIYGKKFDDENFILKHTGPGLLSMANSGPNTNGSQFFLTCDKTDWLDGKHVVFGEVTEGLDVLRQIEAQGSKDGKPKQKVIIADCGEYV

The target of assay [1] is T2, Aquarius (wild type) (human) (UniProt O60306).
T2 sequence: T1 sequence with A829K
The assay is described as above.

Numbering of substitutions follows the chain as printed. These are yes or no findings as the source states them, for the method shown. In cells and extracts the contact can be indirect. Some entries that bind do so weakly or less than the wild type.

For the molecule “PPIE (from UniProt Q9UNP9 1-301) (enzyme)”, the binding result (with Aquarius K829A (human); in assay [1]) was “binds” in each case.

B1: CCDC16 (protein, UniProt Q96NB3 1-372)
chain: MASSASARTPAGKRVINQEELRRLMKEKQRLSTSRKRIESPFAKYNRLGQLSCALCNTPVKSELLWQTHVLGKQHREKVAELKGAKEASQGSSASSAPHSVKRKAPDADDQDVKRAKATLVPQVQPSTSAWTTNFDKIGKEFIRATPSKPSGLSLLPDYEDEEEEEEEEEGDGERKRGDASKPLSDAQGKEHSVSSSREVTSSVLPNDFFSTNPPKAPIIPHSGSIEKAEIHEKVVERRENTAEALPEGFFDDPEVDARVRKVDAPKDQMDKEWDEFQKAMRQVNTISEAIVAEEDEEGRLDRQIGEIDEQIECYRRVEKLRNRQDEIKNKLKEILTIKELQKKEEENADSDDEGELQDLLSQDWRVKGALL
For the molecule B1, the binding result (in the assay with Aquarius K829A (human); in assay [1]) was “binds” in each case.

B2: SYF1 (protein, UniProt Q9HCS7 1-855)
chain: MVVMARLSRPERPDLVFEEEDLPYEEEIMRNQFSVKCWLRYIEFKQGAPKPRLNQLYERALKLLPCSYKLWYRYLKARRAQVKHRCVTDPAYEDVNNCHERAFVFMHKMPRLWLDYCQFLMDQGRVTHTRRTFDRALRALPITQHSRIWPLYLRFLRSHPLPETAVRGYRRFLKLSPESAEEYIEYLKSSDRLDEAAQRLATVVNDERFVSKAGKSNYQLWHELCDLISQNPDKVQSLNVDAIIRGGLTRFTDQLGKLWCSLADYYIRSGHFEKARDVYEEAIRTVMTVRDFTQVFDSYAQFEESMIAAKMETASELGREEEDDVDLELRLARFEQLISRRPLLLNSVLLRQNPHHVHEWHKRVALHQGRPREIINTYTEAVQTVDPFKATGKPHTLWVAFAKFYEDNGQLDDARVILEKATKVNFKQVDDLASVWCQCGELELRHENYDEALRLLRKATALPARRAEYFDGSEPVQNRVYKSLKVWSMLADLEESLGTFQSTKAVYDRILDLRIATPQIVINYAMFLEEHKYFEESFKAYERGISLFKWPNVSDIWSTYLTKFIARYGGRKLERARDLFEQALDGCPPKYAKTLYLLYAQLEEEWGLARHAMAVYERATRAVEPAQQYDMFNIYIKRAAEIYGVTHTRGIYQKAIEVLSDEHAREMCLRFADMECKLGEIDRARAIYSFCSQICDPRTTGAFWQTWKDFEVRHGNEDTIKEMLRIRRSVQATYNTQVNFMASQMLKVSGSATGTVSDLAPGQSGMDDMKLLEQRAEQLAAEAERDQPLRAQSKILFVRSDASREELAELAQQVNPEEIQLGEDEDEDEMDLEPNEVRLEQQSVPAAVFGSLKED
With B2, the binding result (with Aquarius K829A (human); in assay [1]) was “binds” throughout.

B3: ISY1 (protein, UniProt Q9ULR0 1-285)
chain: MARNAEKAMTALARFRQAQLEEGKVKERRPFLASECTELPKAEKWRRQIIGEISKKVAQIQNAGLGEFRIRDLNDEINKLLREKGHWEVRIKELGGPDYGKVGPKMLDHEGKEVPGNRGYKYFGAAKDLPGVRELFEKEPLPPPRKTRAELMKAIDFEYYGYLDEDDGVIVPLEQEYEKKLRAELVEKWKAEREARLARGEKEEEEEEEEEINIYAVTEEESDEEGSQEKGGDDSQQKFIAHVPVPSQQEIEEALVRRKKMELLQKYASETLQAQSEEARRLLGY
For B3, the binding entry (with Aquarius K829A (human); in assay [1]) was “binds” in each case.
